Experimental data reported in ChEMBL document CHEMBL4627350, “Drug repurposing and rediscovery: Design, synthesis and preliminary biological evaluation of 1-arylamino-3-aryloxypropan-2-ols as anti-melanoma agents” (Bioorg Med Chem, 2020).

Tests used:
Type in all cases: functional, cell-based
A-375 = assay: Antiproliferative activity against human A375 cells assessed as cell growth inhibition incubated for 48 hrs by MTT assay; conditions: A-375, 48 h
SK-MEL-5 = assay: Antiproliferative activity against human SK-MEL-5 cells assessed as cell growth inhibition incubated for 48 hrs by MTT assay; conditions: SK-MEL-5, 48 h
SK-MEL-28 = assay: Antiproliferative activity against human SK-MEL-28 cells assessed as cell growth inhibition incubated for 48 hrs by MTT assay; conditions: SK-MEL-28, 48 h

Compound: CC(C)NCC(O)COc1cccc2ccccc12 (stereo not drawn) [PROPRANOLOL]
- IC50 (A-375): 59.5 µM
- IC50 (SK-MEL-5): 62.2 µM
- IC50 (SK-MEL-28): 75.8 µM
